PubChem BioAssay AID1259354 (Paczesny and Yang Labs, IUPUI and University of Michigan, 2018)
Among all 78,000 compounds or so, about 1,800 (2.3%) were called active. The shares of active, inactive and inconclusive entries below differ from those in the screen. Rule as the data show it: active = inhibition above about 30%; inconclusive = mostly about 10% to 28%; inactive = weaker than that.

The chains behind the UniProt entries cited, without tags or fusion partners. Where a name states a change or a piece, a line headed by the entry shows the natural chain unless it says otherwise.
UniProt Q01638: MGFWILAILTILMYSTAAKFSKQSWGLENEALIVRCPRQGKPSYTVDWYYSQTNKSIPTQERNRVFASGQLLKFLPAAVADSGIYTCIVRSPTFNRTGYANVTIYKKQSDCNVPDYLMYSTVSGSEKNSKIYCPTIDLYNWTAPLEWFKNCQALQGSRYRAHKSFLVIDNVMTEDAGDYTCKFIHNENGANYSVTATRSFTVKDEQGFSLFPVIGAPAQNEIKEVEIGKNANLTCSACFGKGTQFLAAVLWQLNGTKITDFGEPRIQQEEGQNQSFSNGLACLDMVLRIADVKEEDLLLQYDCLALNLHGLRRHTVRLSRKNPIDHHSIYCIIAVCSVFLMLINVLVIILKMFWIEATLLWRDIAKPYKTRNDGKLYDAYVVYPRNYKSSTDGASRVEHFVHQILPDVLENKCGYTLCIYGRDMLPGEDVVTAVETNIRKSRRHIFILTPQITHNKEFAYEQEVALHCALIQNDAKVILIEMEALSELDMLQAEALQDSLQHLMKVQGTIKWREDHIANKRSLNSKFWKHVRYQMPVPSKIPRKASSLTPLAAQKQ

Target: Interleukin-1 receptor-like 1 (Homo sapiens) (UniProt Q01638)
Assay: blocks human ST2 binding to IL-33, primary screen, biochemical, AlphaLISA (AID 1259354)
Conditions: AlphaLISA ST2-Fc/biotin-IL-33 interaction, 1 h; at 17 µM, hits give high values

Q: `NC(=O)c1ccc(NC(=O)c2ccc(-c3ccccc3)cc2)cc1` was tested. Which inhibition did it give?
A: The inhibition was inconclusive: 13%.

Q: For `COC(=O)[C@@]1(O)C=CC[C@@H]2[C@@]3(C)C[C@@H](c4ccoc4)OC(=O)[C@H]3CC[C@]21C`, which inhibition is on record?
A: The inhibition was inconclusive: 17%.

Q: `Cc1c(C(=O)N2Cc3cnc(C(C)(C)C)nc3C2)[nH]c2c(F)cccc12` was tested. Which inhibition did it give?
A: The inhibition was inconclusive: 12%.

Q: Which inhibition does the source give for `Cc1n[nH]c(C)c1S(=O)(=O)N1CCC(C(=O)Nc2ccc(F)cc2F)CC1` here?
A: The inhibition was “inactive”.

Q: With `CN1C(=O)C(O)(CC(=O)c2ccccn2)c2ccccc21` (stereo not drawn) as the compound, how does the inhibition read?
A: Its inhibition is inconclusive: 17%.

Q: With `COCCNC(=O)c1cc(N2CCCN(C)CC2)ccn1` as the compound, how does the inhibition read?
A: Its inhibition is inconclusive: 16%.

Q: For `Cn1cnc2c1c(=O)[nH]c(=O)n2C`, which inhibition is on record?
A: The inhibition was “inactive”.

Q: `O=C(Cn1cnc2c(cnn2-c2ccccc2)c1=O)N1CCOCC1` was tested. Which inhibition did it give?
A: The inhibition was inconclusive: 10%.

Q: For `COC(=O)C1C(=O)NC(SC)=C(C#N)C1c1ccc(Cl)cc1Cl` (stereo not drawn), which inhibition is on record?
A: Its inhibition is inconclusive: 18%.

Q: For `c1ccc(-c2nccn2CC2CCN(C3CCCC3)CC2)nc1`, which inhibition is on record?
A: Its inhibition is inconclusive: 15%.

Q: `CCCSC1=C(C#N)C(c2cccc(Cl)c2)CC(=O)N1` (stereo not drawn) was tested. Which inhibition did it give?
A: The inhibition was inconclusive: 11%.

Q: Which inhibition does the source give for `COc1ccc(-c2c3c(=O)n(C)c(=O)n(C)c3cn2-c2ccc(Br)cc2)cc1` here?
A: The inhibition was inconclusive: 12%.

Q: With `CCC(=O)N[C@@H]1c2ccccc2C2(CCN(C(=O)c3sccc3C)CC2)[C@H]1OCc1cccnc1` as the compound, how does the inhibition read?
A: The inhibition was “inactive”.

Q: For `CC1CCN(C(=O)CSc2nc3c(c(=O)n2-c2ccc(Cl)cc2)SCC3)CC1`, which inhibition is on record?
A: The inhibition was inconclusive: 12%.

Q: `NS(=O)(=O)c1ccc(CCNC(=O)CCN2C(=O)c3cccnc3Sc3ccccc32)cc1` was tested. Which inhibition did it give?
A: The inhibition was “inactive”.

Q: How did the inhibition turn out when `COc1ccc(C(=O)N2CCCC(N3CCN(c4ccc(F)cc4)CC3)C2)o1` (stereo not drawn) was run?
A: Its inhibition is inconclusive: 14%.

Q: With `CCOC(=O)C1(C/C=C/c2ccccc2)CCCN(C(=O)C(=O)c2ccccc2)C1` (stereo not drawn) as the compound, how does the inhibition read?
A: Its inhibition is “inactive”.

Q: For `CCc1ccc(S(=O)(=O)N2CCN(c3cc(-c4ccc(C)cc4)ncn3)CC2)cc1`, which inhibition is on record?
A: The inhibition was inconclusive: 17%.

Q: With `COc1ccc2oc(=Nc3ccc(-c4ccccc4)cc3)c(C(N)=O)cc2c1` as the compound, how does the inhibition read?
A: The inhibition was “inactive”.

Q: How did the inhibition turn out when `O=[N+]([O-])c1ccccc1N=Cc1nc(-c2ccccc2F)oc1O` was run?
A: The inhibition was inconclusive: 16%.

Q: For `CCCn1ncc(CN2CCN(c3ccnc4ccccc34)CC2)c1C`, which inhibition is on record?
A: The inhibition was inconclusive: 15%.

Q: How did the inhibition turn out when `CC(C)Cc1nc(CN(C)Cc2ccnc3ccccc23)no1` was run?
A: The inhibition was inconclusive: 12%.

Q: With `O=C(Nc1cccc(C(F)(F)F)c1)N[C@H]1CO[C@H]2[C@@H]1OC[C@H]2OC(=O)Nc1ccccc1` as the compound, how does the inhibition read?
A: Its inhibition is inconclusive: 10%.

Q: For `CCOc1ccc(CN(Cc2cccc3c2OCO3)C2CC2)cc1`, which inhibition is on record?
A: The inhibition was inconclusive: 11%.

Q: How did the inhibition turn out when `CCOc1ccc(-c2ccc(C=O)o2)c([N+](=O)[O-])c1` was run?
A: The inhibition was inconclusive: 13%.

Q: With `O=C(c1ccccc1)N1N=C(c2ccc([N+](=O)[O-])cc2)CC1c1ccccc1` (stereo not drawn) as the compound, how does the inhibition read?
A: Its inhibition is inconclusive: 11%.

Q: `CCN(Cc1ccncc1)C(=O)CC1C(=O)NCCN1Cc1cccs1` (stereo not drawn) was tested. Which inhibition did it give?
A: Its inhibition is “inactive”.

Q: For `COc1ccc(CC(=O)Nc2ccc(=O)n3c2[C@@H]2C[C@@H](CN(C(=O)NC4CCCCC4)C2)C3)cc1`, which inhibition is on record?
A: Its inhibition is inconclusive: 13%.

Q: `c1nc2c([nH]1)CCNC2c1ccc(-c2ccc3c(c2)OCCO3)cc1` (stereo not drawn) was tested. Which inhibition did it give?
A: The inhibition was “inactive”.

Q: How did the inhibition turn out when `COc1cc(CNC2(O)CCOC(C)(C)C2)ccc1O` (stereo not drawn) was run?
A: Its inhibition is “inactive”.

Q: `CCOc1ccc(-c2csc(/C(C#N)=C/c3ccc(N(C)C)cc3)n2)cc1` was tested. Which inhibition did it give?
A: Its inhibition is active: 65%.

Q: Which inhibition does the source give for `O=C(CSc1nc2c(c(=O)n1-c1ccccc1)SCC2)NCc1ccc(F)cc1` here?
A: Its inhibition is inconclusive: 18%.

Q: Which inhibition does the source give for `Cc1ccc(-n2c(SCC(=O)Nc3ccc4c(c3)OCCO4)nc3c(c2=O)SCC3)cc1` here?
A: Its inhibition is inconclusive: 13%.

Q: `CCC(NS(=O)(=O)c1cc([N+](=O)[O-])ccc1Cl)C12CC3CC(CC(C3)C1)C2` (stereo not drawn) was tested. Which inhibition did it give?
A: The inhibition was inconclusive: 28%.

Q: For `CCN(Cc1ccoc1)CC1CCN(CCc2ccccc2C)CC1`, which inhibition is on record?
A: The inhibition was inconclusive: 19%.

Q: Which inhibition does the source give for `COCCN1C(=O)N(Cc2cccnc2)C(=O)C12CCN(Cc1ccccc1-c1ccco1)CC2` here?
A: Its inhibition is inconclusive: 10%.

Q: Which inhibition does the source give for `O=C(NCc1ccc(F)cc1)c1ccc2c(c1)N(Cc1ccccc1F)C(=O)CS2` here?
A: The inhibition was “inactive”.

Q: `CCSc1nnc2c(n1)OC(C(=O)c1ccccc1)Nc1ccccc1-2` (stereo not drawn) was tested. Which inhibition did it give?
A: Its inhibition is inconclusive: 19%.

Q: `CC1CCN(c2nnc(-c3ccccc3)c3ccccc23)CC1` was tested. Which inhibition did it give?
A: The inhibition was inconclusive: 14%.

Q: With `COCC(C)NCCn1[nH]c(=O)ccc1=O` (stereo not drawn) as the compound, how does the inhibition read?
A: Its inhibition is “inactive”.

Q: For `N#Cc1c(NC(=O)c2ccc(Br)o2)sc2c1CCCC2`, which inhibition is on record?
A: Its inhibition is inconclusive: 14%.

Q: Which inhibition does the source give for `COc1ccc(-c2cc3c(n(C)c2=O)CCN(C(=O)c2ccc(C(C)=O)s2)C3)c2ccc(C)nc12` here?
A: The inhibition was inconclusive: 22%.

Q: With `Cc1ccc(-n2ncc3c2CC(C)(C)CC3NC(=O)c2cn(C)c3ccccc3c2=O)cc1` (stereo not drawn) as the compound, how does the inhibition read?
A: Its inhibition is inconclusive: 22%.

Q: For `Cc1ccc([N+](=O)[O-])cc1NC(=O)c1ccc(S(=O)(=O)c2ccc(Cl)cc2)cc1`, which inhibition is on record?
A: The inhibition was inconclusive: 17%.

Q: How did the inhibition turn out when `CCOCCCNC(=O)C1c2c(n(C)c3ccccc23)SCC(=O)N1c1ccc(F)cc1F` (stereo not drawn) was run?
A: The inhibition was “inactive”.

Q: Which inhibition does the source give for `COC(=O)C1C(O)CCC2CN3CCc4c([nH]c5ccccc45)C3CC21` (stereo not drawn) here?
A: The inhibition was inconclusive: 18%.

Q: With `Cc1cccc(C)c1-c1c(-c2ccccc2)ncn1CCC(=O)N1CCCC1` as the compound, how does the inhibition read?
A: The inhibition was “inactive”.

Q: Which inhibition does the source give for `Cn1c(=O)c2c(nc(Br)n2CC(=O)c2ccccc2)n(C)c1=O` here?
A: Its inhibition is “inactive”.

Q: For `CCCn1cc(C(=O)N2CCNCC2C(=O)N2CCOCC2)c(C)n1` (stereo not drawn), which inhibition is on record?
A: Its inhibition is “inactive”.

Q: Which inhibition does the source give for `CCCCN(C)CCCNC(=O)c1ccc2c(c1)NC(=O)C(N1CCOCC1)S2` (stereo not drawn) here?
A: The inhibition was “inactive”.

Q: `NC(CC(=O)O)c1ccc(Cl)cc1` (stereo not drawn) was tested. Which inhibition did it give?
A: The inhibition was inconclusive: 12%.

Q: With `CN1CCCNC(=O)C12CCN(C(=O)C(=O)Nc1cccc(F)c1)CC2` as the compound, how does the inhibition read?
A: The inhibition was “inactive”.

Q: With `c1cc(OCCn2ccnc2)cc(-c2ccnc3[nH]ccc23)c1` as the compound, how does the inhibition read?
A: Its inhibition is inconclusive: 23%.

Q: With `O=C(CN1C(=O)CCc2cc(S(=O)(=O)N3CCCC3)ccc21)NCc1ccco1` as the compound, how does the inhibition read?
A: Its inhibition is “inactive”.

Q: With `O=C(Cc1ccccc1)Nc1ncc2c(n1)CC(c1ccco1)CC2=O` (stereo not drawn) as the compound, how does the inhibition read?
A: Its inhibition is “inactive”.

Q: `CC(=O)Nc1ccc2nc3c(=O)n(C)c(=O)n(C)c3nc2c1` was tested. Which inhibition did it give?
A: The inhibition was inconclusive: 12%.

Q: With `COc1ccc(Cc2ccc(OC)c(N)c2)cc1N` as the compound, how does the inhibition read?
A: The inhibition was inconclusive: 16%.

Q: How did the inhibition turn out when `COc1ccc(-c2cc(C[C@H]3CNCC[C@H]3CC(=O)Nc3nccs3)no2)cc1` was run?
A: The inhibition was inconclusive: 17%.
